# Source: PubChem BioAssay AID1053208 (Peter MacCallum Cancer Centre, 2014)
# Test: 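Genes whose silencing cuts survival of bone tumour cells only with doxorubicin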 (primary screen)
# Cells: mouse osteosarcoma cells, early-passage culture from an engineered mouse model of fibroblastic bone tumour
# Knock-down reagent: siRNA pool against mouse genes, 40 nM
# Timing: about 120 h (48 h before drug, then 72 h with drug)
# Treatment: doxorubicin 100 nM for 72 h, roughly 30-40% inhibitory dose
# Read-out: 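Viability read as ATP luminescence after 72 h of 100 nM doxorubicin or none, duplicate wells averaged, scaled to non-targeting siRNA, then expressed as robust z-scores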
# Direction: viability z-score with doxorubicin and doxorubicin viability vs non-targeting: higher = more viable cells under doxorubicin; viability z-score without drug: higher = more viable cells with knock-down alone; z-score of drug to no-drug ratio: higher = less drug sensitisation by knock-down
# Rule for the call: 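a pool counts as active when its viability z-score with doxorubicin is -2 or below and its z-score without drug lies between -2 and 2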
# This is an unselected part of about 17,000 reagents tested. Over the whole deposit, 788 (4.7%) are marked active. 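Calls rest on z-score classes alone; an extra cut-off of viability at most 70% of control was not applied to them.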 The numbers tell different reagents against one gene apart.
gene,pool no.,combined z-score class,viability z-score with doxorubicin,viability z-score without drug,z-score of drug to no-drug ratio,doxorubicin viability vs non-targeting,activity call
Or2w4 (GeneID 258739),1,no change with or without drug,0.34,0.17,0.34,0.97,inactive
Ttll9 (GeneID 74711),1,low cell count with doxorubicin only,-2.02,1.85,-2.92,0.76,active
Noa1 (GeneID 56412),1,no change with or without drug,0,0.51,-0.22,0.94,inactive
Timm10 (GeneID 30059),1,no change with or without drug,-1.35,0.84,-1.8,0.82,inactive
Fchsd2 (GeneID 207278),1,no change with or without drug,0,-0.84,0.67,0.94,inactive
Shroom3 (GeneID 27428),1,no change with or without drug,-1.35,-1.52,-0.34,0.82,inactive
Atp5f1d (GeneID 66043),1,low cell count with doxorubicin only,-2.02,0.84,-2.47,0.76,active
Aste1 (GeneID 66595),1,no change with or without drug,1.8,0.17,1.91,1.1,inactive
Oog2 (GeneID 381570),1,no change with or without drug,0.34,0,0.45,0.97,inactive
Alpi (GeneID 76768),1,no change with or without drug,-1.8,1.18,-2.47,0.78,inactive
Pcdhgb7 (GeneID 93704),1,no change with or without drug,-1.12,0.84,-1.57,0.84,inactive
Gpr35 (GeneID 64095),1,no change with or without drug,-0.34,-0.17,-0.11,0.91,inactive
Cyc1 (GeneID 66445),1,low cell count without drug only,0.9,-2.19,2.92,1.02,inactive
Ms4a19 (GeneID 69416),1,no change with or without drug,-1.01,-0.84,-0.45,0.85,inactive
Slc3a1 (GeneID 20532),1,no change with or without drug,0,0.84,-0.45,0.94,inactive
Mbtd1 (GeneID 103537),1,no change with or without drug,0.11,-0.17,0.34,0.95,inactive
Elmod1 (GeneID 270162),1,no change with or without drug,0.45,0.34,0.34,0.98,inactive
Akap5 (GeneID 238276),1,no change with or without drug,-0.67,-0.51,-0.22,0.88,inactive
Drg1 (GeneID 13494),1,low cell count without drug only,-1.01,-2.19,0.67,0.85,inactive
Srms (GeneID 20811),1,no change with or without drug,-0.11,-0.51,0.34,0.93,inactive
Zfp37 (GeneID 22696),1,no change with or without drug,0.22,0.84,-0.22,0.96,inactive
Nrdc (GeneID 230598),1,no change with or without drug,0.22,-1.18,1.24,0.96,inactive
Srm (GeneID 20810),1,no change with or without drug,-0.22,-1.52,1.01,0.92,inactive
Lats2 (GeneID 50523),1,no change with or without drug,-1.12,0.51,-1.35,0.84,inactive
Taar8b (GeneID 382348),1,no change with or without drug,1.8,-0.17,2.14,1.1,inactive
Pof1b (GeneID 69693),1,no change with or without drug,0.34,-0.84,1.12,0.97,inactive
Smarcc1 (GeneID 20588),1,no change with or without drug,0.22,0.17,0.22,0.96,inactive
Fbxo27 (GeneID 233040),1,no change with or without drug,-1.69,0.84,-2.14,0.79,inactive
Dnajc27 (GeneID 217378),1,no change with or without drug,-0.11,-0.17,0.11,0.93,inactive
Hes5 (GeneID 15208),1,no change with or without drug,0.67,1.85,-0.45,1,inactive
1810009N02Rik (GeneID 69099),1,low cell count with doxorubicin only,-3.6,-0.17,-3.6,0.62,active
Plcl2 (GeneID 224860),1,no change with or without drug,-0.67,0.17,-0.67,0.88,inactive
Or8k33 (GeneID 258404),1,no change with or without drug,0.45,0.17,0.45,0.98,inactive
Rhox6 (GeneID 19202),1,no change with or without drug,0.79,1.52,-0.11,1.01,inactive
Rasa3 (GeneID 19414),1,no change with or without drug,0.56,0.51,0.34,0.99,inactive
Wnt10a (GeneID 22409),1,no change with or without drug,0,1.18,-0.67,0.94,inactive
C2cd4c (GeneID 237397),1,no change with or without drug,0.34,0.17,0.34,0.97,inactive
Cdh17 (GeneID 12557),1,no change with or without drug,-1.01,-0.51,-0.67,0.85,inactive
Slc30a7 (GeneID 66500),1,low cell count with doxorubicin only,-2.81,-1.18,-2.25,0.69,active
Kcnk12 (GeneID 210741),1,no change with or without drug,-1.35,-0.84,-0.79,0.82,inactive
Dppa5a (GeneID 434423),1,no change with or without drug,0.67,0.84,0.22,1,inactive
Adam24 (GeneID 13526),1,no change with or without drug,-0.67,-0.51,-0.22,0.88,inactive
Btf3 (GeneID 218490),1,no change with or without drug,1.24,-1.52,2.7,1.05,inactive
Dcakd (GeneID 68087),1,no change with or without drug,0.45,-0.84,1.24,0.98,inactive
Eif4g3 (GeneID 230861),1,high cell count without drug only,-0.45,2.02,-1.57,0.9,inactive
Crp (GeneID 12944),1,no change with or without drug,0.34,0,0.45,0.97,inactive
Epo (GeneID 13856),1,no change with or without drug,0,1.18,-0.67,0.94,inactive
Rsrp1 (GeneID 27981),1,no change with or without drug,1.35,1.18,0.67,1.06,inactive
Gcm1 (GeneID 14531),1,no change with or without drug,0.34,0.51,0.11,0.97,inactive
Ikbip (GeneID 67454),1,no change with or without drug,0,0.84,-0.45,0.94,inactive
Ikbip (GeneID 67454),2,high cell count without drug only,0,2.53,-1.46,0.94,inactive

No new results follow: entries from further up.
gene,pool no.,combined z-score class,viability z-score with doxorubicin,viability z-score without drug,z-score of drug to no-drug ratio,doxorubicin viability vs non-targeting,activity call
C2cd4c (GeneID 237397),1,no change with or without drug,0.34,0.17,0.34,0.97,inactive
Cdh17 (GeneID 12557),1,no change with or without drug,-1.01,-0.51,-0.67,0.85,inactive
Slc30a7 (GeneID 66500),1,low cell count with doxorubicin only,-2.81,-1.18,-2.25,0.69,active
Kcnk12 (GeneID 210741),1,no change with or without drug,-1.35,-0.84,-0.79,0.82,inactive
Dppa5a (GeneID 434423),1,no change with or without drug,0.67,0.84,0.22,1,inactive
